Measured values published in US20220356246A1.
These are yes or no findings as the source states them, for the method shown. Some binding calls cover weakened binding; strength is not graded here.

The chains behind the UniProt entries cited, without tags or fusion partners. Residues count along the entry.
UniProt Q9Z139, residues 30-403: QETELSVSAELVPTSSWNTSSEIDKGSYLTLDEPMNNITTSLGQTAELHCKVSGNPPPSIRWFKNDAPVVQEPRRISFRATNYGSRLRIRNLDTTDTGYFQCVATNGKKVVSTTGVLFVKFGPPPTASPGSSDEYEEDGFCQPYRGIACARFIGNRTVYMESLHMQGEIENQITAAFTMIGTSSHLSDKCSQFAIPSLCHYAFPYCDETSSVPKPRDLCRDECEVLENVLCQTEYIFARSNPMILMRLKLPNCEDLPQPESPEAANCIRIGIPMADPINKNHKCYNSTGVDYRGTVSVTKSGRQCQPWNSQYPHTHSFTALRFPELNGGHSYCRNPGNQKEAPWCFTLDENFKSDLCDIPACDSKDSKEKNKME

B1: anti-ROR1 antibody clone C3 (antibody, V domains shown)
VH: QVQLQESGPGLVKPSETLSLTCTVSGGSISSYYWSWIRQLPGKGLEWIGYMHYSGSTSYNPSLKGRLTISVDTSTNQFSLKLGSVTAADTAVYYCARYYYHDSSGYYSYFDYWGQGTLVTVSS
VL: EIVLTQSPGTLSLSPGERATLSCRASQSVSSYLAWYQQKAGQAPRLLIYDASNRASGIPARFSGSGSGTDFTLTISSLEPEDFAVYYCQQRSNWPPTFGGGTKVEIK
B2: anti-ROR1 antibody clone G6 (antibody, V domains shown)
VH: EVQLVESGGGVVQPGGSLRLSCAASGFTFDDYAMHWVRQAPGKGLEWVSLISGDGGSTYYADSVKGRFTISRDNAKNSLYLQMNSLRAEDTAVYYCARDNWNDVYYYYGMDVWGQGTTVTVSS
VL: DIQLTQSPSSLSASIGDTVTISCQASRDISDYLNWYQHKPGKAPKLLIYDASNLATGVPSRFSGSGSGTDFTLTIKSLQPEDVATYFCQQDDLLPLTFGGGTKVDIK

What was measured:
[1] = biological target: mouse ROR1 (coated on ELISA plate) (mouse) (UniProt Q9Z139); assay: ELISA, plate coated with mouse ROR1, IgG1 detected with HRP anti-human IgG
[2] = biological target: mouse ROR1 (coated on ELISA plate) (mouse) (UniProt Q9Z139); assay: ELISA (FIG. 2B legend)

| Binder | binding [1] | binding [2] |
| --- | --- | --- |
| B1 | binds | binds |
| B2 | binds | binds |
